In article PMC10368723:

Biological target: MET404 (endogenous, GSC23 cells) (human (endogenous in GSC23)) (UniProt P08581)
Assay: affinity purification with mass spectrometry; MET404 immunoprecipitation from cell lysate (GSC23 by the legend of Fig. 5f), co-IP soft RIPA lysis buffer, antibody at 4 °C overnight, protein A/G agarose, washed with PBST, SDS-PAGE and LC-MS

binding: binds
Substance: HSP90AA1 (from UniProt P07900 1-732)

Results are given in words; binding and its absence hold for the method and conditions named. Binding seen in cells or lysates may run through a third protein. A yes stands for co-enrichment or nearness to the bait. Other partners may have been found.
